PubChem BioAssay AID493246 | Drosophila RNAi Screening Center | 2011

Purpose: 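Identify essential fly genes by loss of cell viability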 (primary screen)
System: Drosophila Kc and S2R+ cells
Reagent: long dsRNA against Drosophila genes
Read-out: 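Raw, unnormalised count of remaining cells in each well; per-plate z-scores of cell number underlie the calls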
Direction: Kc cell number and S2R+ cell number: higher = more cells remaining
Hit rule: 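Active when the per-plate z-score of cell number is 3 or more in the direction of fewer cells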
In all, the deposit lists about 21,000 reagents; this is a random part of those that have a named target and a result. Over the whole deposit, 429 (2%) got an active call. 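Values are raw and not normalised between plates; calls rest on per-plate z-scores that were not deposited.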 A plus sign joins genes that one reagent is predicted to hit. The record does not give: the amount of reagent, the time to read-out.

With knock-down of polyph (polyphemus) [DRSC06254] the results were Kc cell number, rep 1 = 1.76e6; Kc cell number, rep 2 = 1.66e6; S2R+ cell number, rep 1 = 1.32e6; S2R+ cell number, rep 2 = 1.51e6; inactive.
eg (eagle) [DRSC11885] gave Kc cell number, rep 1 = 1.39e6; Kc cell number, rep 2 = 1.39e6; S2R+ cell number, rep 1 = 1.33e6; S2R+ cell number, rep 2 = 1.46e6; inactive.
Depletion of CG18048 [DRSC12573] gave: Kc cell number, rep 1 = 1.48e6; Kc cell number, rep 2 = 1.57e6; S2R+ cell number, rep 1 = 1.24e6; S2R+ cell number, rep 2 = 1.34e6; inactive.
For Rok (Rho kinase) [DRSC20277] the deposit lists Kc cell number, rep 1 = 1.48e6; Kc cell number, rep 2 = 1.53e6; S2R+ cell number, rep 1 = 1.02e6; S2R+ cell number, rep 2 = 1.13e6; inactive.
After knock-down of CG15209 [DRSC19655], the screen gave Kc cell number, rep 1 = 1.85e6; Kc cell number, rep 2 = 1.74e6; S2R+ cell number, rep 1 = 1.10e6; S2R+ cell number, rep 2 = 1.22e6; inactive.
Knock-down of CG31559 [DRSC12172] resulted in: Kc cell number, rep 1 = 1.51e6; Kc cell number, rep 2 = 1.39e6; S2R+ cell number, rep 1 = 1.36e6; S2R+ cell number, rep 2 = 1.43e6; inactive.
CG31559 [DRSC12270] gave Kc cell number, rep 1 = 1.52e6; Kc cell number, rep 2 = 1.54e6; S2R+ cell number, rep 1 = 1.38e6; S2R+ cell number, rep 2 = 1.50e6; inactive.
Knock-down of Rrp47 (Ribosomal RNA processing 47) [DRSC20124] resulted in: Kc cell number, rep 1 = 1.51e6; Kc cell number, rep 2 = 1.55e6; S2R+ cell number, rep 1 = 1.13e6; S2R+ cell number, rep 2 = 1.24e6; inactive.
After knock-down of CG33769 [DRSC11716], the screen gave Kc cell number, rep 1 = 1.84e6; Kc cell number, rep 2 = 1.78e6; S2R+ cell number, rep 1 = 1.27e6; S2R+ cell number, rep 2 = 1.56e6; inactive.
After knock-down of CG14565 [DRSC11726] the results were Kc cell number, rep 1 = 1.33e6; Kc cell number, rep 2 = 1.33e6; S2R+ cell number, rep 1 = 1.28e6; S2R+ cell number, rep 2 = 1.33e6; inactive.
ND-B15 (NADH dehydrogenase (ubiquinone) B15 subunit) [DRSC06199] scored Kc cell number, rep 1 = 1.24e6; Kc cell number, rep 2 = 1.48e6; S2R+ cell number, rep 1 = 1.13e6; S2R+ cell number, rep 2 = 1.21e6; inactive.
Knock-down of CG9004 [DRSC08617] resulted in: Kc cell number, rep 1 = 1.39e6; Kc cell number, rep 2 = 1.29e6; S2R+ cell number, rep 1 = 1.00e6; S2R+ cell number, rep 2 = 1.17e6; inactive.
With knock-down of CG42516 + Pbp49 [DRSC06073], the record shows Kc cell number, rep 1 = 1.29e6; Kc cell number, rep 2 = 1.36e6; S2R+ cell number, rep 1 = 1.09e6; S2R+ cell number, rep 2 = 1.12e6; inactive.
After knock-down of dyw (daywake) [DRSC18228] the results were Kc cell number, rep 1 = 1.42e6; Kc cell number, rep 2 = 1.51e6; S2R+ cell number, rep 1 = 9.44e5; S2R+ cell number, rep 2 = 1.15e6; inactive.

Entries listed so far whose target name begins with R or r:
Rok (Rho kinase) [DRSC20277] → Kc cell number, rep 1 = 1.48e6; Kc cell number, rep 2 = 1.53e6; S2R+ cell number, rep 1 = 1.02e6; S2R+ cell number, rep 2 = 1.13e6; outcome = inactive
Rrp47 (Ribosomal RNA processing 47) [DRSC20124] → Kc cell number, rep 1 = 1.51e6; Kc cell number, rep 2 = 1.55e6; S2R+ cell number, rep 1 = 1.13e6; S2R+ cell number, rep 2 = 1.24e6; outcome = inactive
